Measurements reported in PubChem BioAssay AID1671195 (Yale University, 2021).
This is an unselected part of about 22,000 reagents. About 1,510 of them (6.9%) count as active. 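Active includes knockdowns raising or lowering LDL uptake; positive z-scores mean more uptake, negative mean less.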 Unmarked entries are inactive.

Assay: 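Knockdowns that increase or decrease uptake of fluorescent LDL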 (primary screen)
Cell system: human Huh7 hepatoma cells
Reagents: siRNA pool against human genes, 18 nM
Duration: about 2 to 2.5 days of knockdown, then 8 h LDL uptake
Treatment: DiI-labelled LDL at 30 µg/ml for 8 h, in lipoprotein-deficient serum medium
Measurement: 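Fluorescent LDL signal imaged in cells, scaled to the plate median, robust z-score for each replicate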
Direction: robust z-score: higher = more LDL uptake after knockdown
Hit rule: 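a gene counts as active if at least two replicate z-scores exceed ±2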

TNS4 [SID442890738] | robust z-score, replicate 1: 0.791; robust z-score, replicate 2: 0.225; robust z-score, replicate 3: 0.109
FBXL15 [SID442897271] | robust z-score, replicate 1: -0.554; robust z-score, replicate 2: -0.231; robust z-score, replicate 3: -0.316
LOC442012 (retired record) [SID442901762] | robust z-score, replicate 1: -1.07; robust z-score, replicate 2: -1.11; robust z-score, replicate 3: -0.684
MTHFD1 [SID442888755] | robust z-score, replicate 1: 0.889; robust z-score, replicate 2: 0.334; robust z-score, replicate 3: 0.776
PLAG1 [SID442883165] | robust z-score, replicate 1: 4.63 (active); robust z-score, replicate 2: 4.38; robust z-score, replicate 3: 3.88
TNK1 [SID442898304] | robust z-score, replicate 1: -0.659; robust z-score, replicate 2: -0.602; robust z-score, replicate 3: -0.19
CASD1 [SID442898468] | robust z-score, replicate 1: -0.637; robust z-score, replicate 2: -0.561; robust z-score, replicate 3: -0.308
CCNC [SID442885124] | robust z-score, replicate 1: 2.74; robust z-score, replicate 2: 1.02; robust z-score, replicate 3: 1.25
OSBPL3 [SID442888090] | robust z-score, replicate 1: 0.694; robust z-score, replicate 2: 1.28; robust z-score, replicate 3: 0.383
LOC389185 (retired record) [SID442885284] | robust z-score, replicate 1: 2.58; robust z-score, replicate 2: 1.39; robust z-score, replicate 3: 0.769
LOC400948 (retired record) [SID442900110] | robust z-score, replicate 1: -0.693; robust z-score, replicate 2: -0.577; robust z-score, replicate 3: -0.871
RNASE9 [SID442889035] | robust z-score, replicate 1: 0.857; robust z-score, replicate 2: 0.34; robust z-score, replicate 3: 0.67
LINC00612 [SID442885282] | robust z-score, replicate 1: 1.43; robust z-score, replicate 2: 1.75; robust z-score, replicate 3: 1.57
AJAP1 [SID442901030] | robust z-score, replicate 1: -1.17; robust z-score, replicate 2: -1.08; robust z-score, replicate 3: -0.271
IDH2 [SID442894245] | robust z-score, replicate 1: 0.228; robust z-score, replicate 2: -0.204; robust z-score, replicate 3: -0.15
IL18 [SID442883341] | robust z-score, replicate 1: 2.83 (active); robust z-score, replicate 2: 3.51; robust z-score, replicate 3: 3.26
S100A10 [SID442904510] | robust z-score, replicate 1: -1.66; robust z-score, replicate 2: -1.52; robust z-score, replicate 3: -1.86
VPS13D [SID442899884] | robust z-score, replicate 1: -1.3; robust z-score, replicate 2: -0.782; robust z-score, replicate 3: 0.0362
LOC440113 (retired record) [SID442883170] | robust z-score, replicate 1: 4.4 (active); robust z-score, replicate 2: 4.1; robust z-score, replicate 3: 4.23
TGM6 [SID442895940] | robust z-score, replicate 1: -0.115; robust z-score, replicate 2: -0.315; robust z-score, replicate 3: -0.238
HNRNPA1P4 [SID442892129] | robust z-score, replicate 1: 0.247; robust z-score, replicate 2: 0.234; robust z-score, replicate 3: 0.134
LOC441732 (retired record) [SID442891083] | robust z-score, replicate 1: 0.0874; robust z-score, replicate 2: 0.0657; robust z-score, replicate 3: 0.847
PSMA3-AS1 [SID442901368] | robust z-score, replicate 1: -0.33; robust z-score, replicate 2: -1.21; robust z-score, replicate 3: -1.13
AVPR1A [SID442893572] | robust z-score, replicate 1: 0.414; robust z-score, replicate 2: -0.125; robust z-score, replicate 3: -0.187
KAT2B [SID442898160] | robust z-score, replicate 1: -0.503; robust z-score, replicate 2: -0.706; robust z-score, replicate 3: -0.196
LILRB2 [SID442884564] | robust z-score, replicate 1: -2.5 (active); robust z-score, replicate 2: -2.24; robust z-score, replicate 3: -2.83
PDE5A [SID442904605] | robust z-score, replicate 1: -1.97; robust z-score, replicate 2: -1.61; robust z-score, replicate 3: -1.66
KDM6B [SID442884483] | robust z-score, replicate 1: -2.37 (active); robust z-score, replicate 2: -2.39; robust z-score, replicate 3: -1.82
MAOB [SID442889086] | robust z-score, replicate 1: 0.668; robust z-score, replicate 2: 0.598; robust z-score, replicate 3: 0.577
DRC9 [SID442897344] | robust z-score, replicate 1: -0.597; robust z-score, replicate 2: -0.408; robust z-score, replicate 3: -0.122

Looked up above.
Result for KAT2B [SID442898160] in “robust z-score, replicate 3”: -0.196
Under “robust z-score, replicate 1”, LOC442012 (retired record) [SID442901762] reads -1.07
